In US20150010525A1, “Catalytic Tagging System to Study Macro-Molecular Interactions Using Engineered Ubiquitin Ligase and Ubiquitin-Like Proteins to Facilitate Substrate Identification” (THE REGENTS OF THE UNIVERSITY OF CALIFORNIA, priority 2012, published 2015):
Some results were stated once for a whole list of compounds, not compound by compound.

Sequences of proteins named here, by UniProt entry; tags and fusion partners are left off. A change or cut given only in a name is not applied to a line headed by its entry.
UniProt P61081: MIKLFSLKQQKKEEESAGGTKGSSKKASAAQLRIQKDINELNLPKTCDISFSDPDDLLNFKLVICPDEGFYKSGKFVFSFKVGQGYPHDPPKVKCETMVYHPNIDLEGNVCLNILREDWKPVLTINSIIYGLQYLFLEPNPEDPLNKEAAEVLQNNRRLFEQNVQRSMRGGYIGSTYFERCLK
UniProt P98170: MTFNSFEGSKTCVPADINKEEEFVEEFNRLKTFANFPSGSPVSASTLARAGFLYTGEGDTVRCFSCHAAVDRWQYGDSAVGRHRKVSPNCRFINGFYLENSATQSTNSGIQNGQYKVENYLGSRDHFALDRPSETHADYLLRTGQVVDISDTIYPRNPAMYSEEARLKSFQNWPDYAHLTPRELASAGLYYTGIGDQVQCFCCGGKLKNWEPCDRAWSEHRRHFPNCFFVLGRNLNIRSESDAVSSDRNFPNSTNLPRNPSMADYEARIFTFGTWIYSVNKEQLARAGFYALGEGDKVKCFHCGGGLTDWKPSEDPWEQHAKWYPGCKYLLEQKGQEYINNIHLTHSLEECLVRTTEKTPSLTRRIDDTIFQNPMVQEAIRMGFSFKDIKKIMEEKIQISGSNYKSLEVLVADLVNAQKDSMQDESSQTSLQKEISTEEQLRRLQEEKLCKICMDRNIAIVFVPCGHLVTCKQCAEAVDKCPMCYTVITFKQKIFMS
UniProt Q13490: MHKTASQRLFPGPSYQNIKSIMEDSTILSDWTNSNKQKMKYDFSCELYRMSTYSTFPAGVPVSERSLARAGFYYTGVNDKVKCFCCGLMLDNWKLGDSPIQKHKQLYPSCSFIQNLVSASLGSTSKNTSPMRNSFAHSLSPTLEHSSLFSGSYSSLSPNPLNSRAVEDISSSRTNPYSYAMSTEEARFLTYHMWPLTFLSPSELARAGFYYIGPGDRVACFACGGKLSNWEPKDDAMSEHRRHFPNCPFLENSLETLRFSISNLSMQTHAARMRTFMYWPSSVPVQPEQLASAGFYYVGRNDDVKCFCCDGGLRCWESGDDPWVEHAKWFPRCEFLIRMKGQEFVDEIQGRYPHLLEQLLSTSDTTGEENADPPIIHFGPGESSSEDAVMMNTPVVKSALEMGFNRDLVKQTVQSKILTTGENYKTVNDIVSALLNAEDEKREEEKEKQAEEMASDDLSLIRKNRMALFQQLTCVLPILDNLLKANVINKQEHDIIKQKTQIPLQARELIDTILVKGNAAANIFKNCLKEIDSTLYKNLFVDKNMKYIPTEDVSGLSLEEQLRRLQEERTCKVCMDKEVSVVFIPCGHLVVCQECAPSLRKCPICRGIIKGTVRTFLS

B1: SMAC/Diablo homolog, mitochondrial: known IAP substrate (protein, UniProt Q9NR28 22-239, looked up)
Diablo IAP-binding …: LCVPVVANFKKRCFSELIRPWHKTVTIGFGVTLCAVPIAQKSEPHSLSSEALMRRAVSLVTDSTSTFLSQTTYALIEAITEYTKAVYTLTSLYRQYTSLLGKMNSEEEDEVWQVIIGARAEMTSKHQEYLKLETTWMTAVGLSEMAAEAAYQTGADQASITARNHIQLVKLQVEEVHQLSRKAETKLAEAQIEELRQKTQEEGEERAESEQEAYLRED
B2: Serine protease HtrA2, mitochondrial: known IAP substrate (protein, UniProt O43464 134-458, looked up)
Serine protease HTRA2, …: AVPSPPPASPRSQYNFIADVVEKTAPAVVYIEILDRHPFLGREVPISNGSGFVVAADGLIVTNAHVVADRRRVRVRLLSGDTYEAVVTAVDPVADIATLRIQTKEPLPTLPLGRSADVRQGEFVVAMGSPFALQNTITSGIVSSAQRPARDLGLPQTNVEYIQTDAAIDFGNSGGPLVNLDGEVIGVNTMKVTAGISFAIPSDRLREFLHRGEKKNSSSGISGSQRRYIGVMMLTLSPSILAELQLREPSFPDVQHGVLIHKVILGSPAHRAGLRPGDVILAIGEQMVQNAEDVYEAVRTQSQLAVQIRRGRETLTLYVTPEVTE

How the values were obtained:
[1] = target: T1, XIAP (Homo sapiens, UniProt P61081+P98170); experiment: SILAC mass spectrometry screen for XIAP substrates with NEDDylator^XIAP in apoptotic Jurkat cell lysate; type: biochemical
T1 construct: The N-terminus (residues 1-434) of XIAP was then fused via a flexible Gly-Gly-Ser-Gly linker to the NEDD8 E2, Ubc12; GST (N, cleaved yes); made in house; host or cells: E. coli BL21 (DE3)
Description: Jurkat cells were grown in media containing either light or heavy isotopes of lysine and arginine and induced to undergo apoptosis with STS. Light cell extracts were incubated with the respective catalytic tagging system for each of the two IAPs and the heavy extracts labeled only with the wild-type NEDD8 E2, Ubc12. 64 mg regular L-Lys and 83.6 mg L-Arg.HCl were added to 1 liter RPMI-1640 minus L-Lys and L-Arg (Thermo/Pierce), 10% fetal bovine serum (FBS) to generate “Light” medium. 100 mg ^13C6^15N2 L-Lys.2HCl and 86 mg ^13C6 L-Arg.HCl (Cambridge Isotope) were added to the same amount of medium to generate the “Heavy” medium. Jurkat cells were cultured separately in “Light” or “Heavy” medium for 7 days to allow for thorough isotope incorporation. For IAP substrate identification, 400 million cells were treated with 2 μM STS for 4 hours, harvested, lysed in M-PER mammalian protein extraction buffer (Thermo/Pierce) in the presence of protease inhibitors (100× ProteoBlock cocktail, Fermentas) and mixed with cell lysate prepared from 400 million untreated cells. The NEDDylated proteins were isolated under denaturing conditions via the HB-NEDD8 tag using a tandem affinity pull down procedure (Tagwerker et al., Mol Cell Proteomics 5:737-748 (2006)) (FIG. 11). Purified NEDDylated proteins were trypsinized and analyzed with tandem mass spectrometry (LC-MS/MS). […]

[2] = target: T2, cIAP1 (Homo sapiens, UniProt P61081+Q13490); experiment: SILAC mass spectrometry screen for cIAP1 substrates with NEDDylator^cIAP1 in apoptotic Jurkat cell lysate; type: biochemical
T2 construct: cIAP1(ΔR) (residues 1-555); GST (N, cleaved yes); made in house; host or cells: E. coli BL21 (DE3)
Description: Jurkat cells were grown in media containing either light or heavy isotopes of lysine and arginine and induced to undergo apoptosis with STS. Light cell extracts were incubated with the respective catalytic tagging system for each of the two IAPs and the heavy extracts labeled only with the wild-type NEDD8 E2, Ubc12. […] 100 mg ^13C6^15N2 L-Lys.2HCl and 86 mg ^13C6 L-Arg.HCl (Cambridge Isotope) were added to the same amount of medium to generate the “Heavy” medium. Jurkat cells were cultured separately in “Light” or “Heavy” medium for 7 days to allow for thorough isotope incorporation. For IAP substrate identification, 400 million cells were treated with 2 μM STS for 4 hours, harvested, lysed in M-PER mammalian protein extraction buffer (Thermo/Pierce) in the presence of protease inhibitors (100× ProteoBlock cocktail, Fermentas) and mixed with cell lysate prepared from 400 million untreated cells. […] Purified NEDDylated proteins were trypsinized and analyzed with tandem mass spectrometry (LC-MS/MS). […]
The identified peptides were searched against a random decoy protein database for evaluating the false positive rates. […] For SILAC experiment, Light/Heavy ratios for the identified peptides were calculated, using ProteinProspector. […]

Molecule | L/H (Light/Heavy ratio) ([1]; Heavy lysate with Ubc12, listed as Smac) | L/H (Light/Heavy ratio) ([2]; Light lysate with NEDDylator^cIAP1, Heavy lysate with Ubc12, listed as Smac) | L/H (Light/Heavy ratio) ([1]; Heavy lysate with Ubc12, listed as HtrA2) | L/H (Light/Heavy ratio) ([2]; Light lysate with NEDDylator^cIAP1, Heavy lysate with Ubc12, listed as HtrA2)
B1 | greater than 7 | greater than 7 | – | –
B2 | – | – | greater than 7 | greater than 7
